This is one part of the list.
Legend:
Assay in all cases: log2 fold change, soluble protein after heating vs DMSO (PISA); higher = thermal stabilisation; K562 lysate, 10 uM; active = over 0.2 and 3.5 SD of the protein, either way, in both replicates (recomputed)
nilotinib = compound: Cc1cn(-c2cc(NC(=O)c3ccc(C)c(Nc4nccc(-c5cccnc5)n4)c3)cc(C(F)(F)F)c2)cn1 [nilotinib]
Procedure, shortened: (§1)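 Soluble protein was defined as the supernatant remaining after 21,000xg for 90 min, following pooling of heated aliquots and adjustment to 0.5% NP-40 at 4°C. Before that, crude K562 extract at 1 mg/mL protein in PBS pH 7.4 with 1 mM MgCl2 was treated with 10 μM compound for 30 min and heated for 3 min across 48°C-58°C. Quantification used TMTpro 16plex LC-MS/MS with channel sums equalised, and values are log-two fold changes in thermal stability relative to solvent controls from duplicates.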

The chains behind the UniProt entries cited, without tags or fusion partners. Where a name states a change or a piece, a line headed by the entry shows the natural chain unless it says otherwise.
UniProt Q9BVK8: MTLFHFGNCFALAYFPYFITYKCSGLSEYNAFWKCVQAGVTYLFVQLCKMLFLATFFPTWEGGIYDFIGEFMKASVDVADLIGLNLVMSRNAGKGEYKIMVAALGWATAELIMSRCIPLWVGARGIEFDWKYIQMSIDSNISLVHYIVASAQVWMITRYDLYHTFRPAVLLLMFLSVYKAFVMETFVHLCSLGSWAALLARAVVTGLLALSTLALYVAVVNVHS
UniProt Q9BVV7: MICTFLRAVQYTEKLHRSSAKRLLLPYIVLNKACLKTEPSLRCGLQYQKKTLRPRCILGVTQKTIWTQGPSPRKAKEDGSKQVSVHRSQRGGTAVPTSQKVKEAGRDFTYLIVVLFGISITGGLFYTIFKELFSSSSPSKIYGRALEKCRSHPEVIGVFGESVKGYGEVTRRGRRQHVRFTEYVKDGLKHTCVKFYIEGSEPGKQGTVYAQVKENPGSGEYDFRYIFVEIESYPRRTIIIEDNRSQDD
UniProt Q8N131: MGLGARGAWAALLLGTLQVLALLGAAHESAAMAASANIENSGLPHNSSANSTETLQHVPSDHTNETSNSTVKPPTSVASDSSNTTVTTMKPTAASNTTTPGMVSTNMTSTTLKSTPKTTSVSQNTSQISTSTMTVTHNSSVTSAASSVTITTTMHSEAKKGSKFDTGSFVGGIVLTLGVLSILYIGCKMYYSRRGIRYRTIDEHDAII
UniProt Q8N9M5: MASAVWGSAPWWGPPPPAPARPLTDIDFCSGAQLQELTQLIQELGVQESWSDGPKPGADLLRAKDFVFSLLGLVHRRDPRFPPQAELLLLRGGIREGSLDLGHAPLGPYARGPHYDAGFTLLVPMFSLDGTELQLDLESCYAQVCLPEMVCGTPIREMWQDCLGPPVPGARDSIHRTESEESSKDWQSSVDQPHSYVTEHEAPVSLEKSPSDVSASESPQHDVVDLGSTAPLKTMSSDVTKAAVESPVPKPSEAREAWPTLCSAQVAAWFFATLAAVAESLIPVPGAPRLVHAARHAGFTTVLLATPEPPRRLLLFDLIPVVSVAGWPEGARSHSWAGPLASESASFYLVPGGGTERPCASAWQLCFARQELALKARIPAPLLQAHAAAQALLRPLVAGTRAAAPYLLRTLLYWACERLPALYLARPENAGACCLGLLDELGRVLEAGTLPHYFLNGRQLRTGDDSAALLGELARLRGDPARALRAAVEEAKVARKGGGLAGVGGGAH
UniProt Q96EK4, whole entry, looked up: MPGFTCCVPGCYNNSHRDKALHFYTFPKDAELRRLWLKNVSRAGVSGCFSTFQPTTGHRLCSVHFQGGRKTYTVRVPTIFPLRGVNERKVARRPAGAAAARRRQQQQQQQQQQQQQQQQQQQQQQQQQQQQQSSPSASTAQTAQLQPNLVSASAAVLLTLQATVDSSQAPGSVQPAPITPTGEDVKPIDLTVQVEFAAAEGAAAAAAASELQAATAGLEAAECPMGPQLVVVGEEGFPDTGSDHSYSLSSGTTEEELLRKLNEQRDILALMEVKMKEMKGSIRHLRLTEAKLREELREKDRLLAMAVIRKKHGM
UniProt Q9BVK6: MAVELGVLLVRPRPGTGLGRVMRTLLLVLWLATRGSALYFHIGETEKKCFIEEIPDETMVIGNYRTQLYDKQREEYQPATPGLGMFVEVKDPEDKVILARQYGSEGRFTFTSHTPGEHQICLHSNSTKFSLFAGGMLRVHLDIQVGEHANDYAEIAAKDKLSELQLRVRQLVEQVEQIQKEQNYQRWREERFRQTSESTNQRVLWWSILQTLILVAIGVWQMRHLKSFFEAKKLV
UniProt Q07157: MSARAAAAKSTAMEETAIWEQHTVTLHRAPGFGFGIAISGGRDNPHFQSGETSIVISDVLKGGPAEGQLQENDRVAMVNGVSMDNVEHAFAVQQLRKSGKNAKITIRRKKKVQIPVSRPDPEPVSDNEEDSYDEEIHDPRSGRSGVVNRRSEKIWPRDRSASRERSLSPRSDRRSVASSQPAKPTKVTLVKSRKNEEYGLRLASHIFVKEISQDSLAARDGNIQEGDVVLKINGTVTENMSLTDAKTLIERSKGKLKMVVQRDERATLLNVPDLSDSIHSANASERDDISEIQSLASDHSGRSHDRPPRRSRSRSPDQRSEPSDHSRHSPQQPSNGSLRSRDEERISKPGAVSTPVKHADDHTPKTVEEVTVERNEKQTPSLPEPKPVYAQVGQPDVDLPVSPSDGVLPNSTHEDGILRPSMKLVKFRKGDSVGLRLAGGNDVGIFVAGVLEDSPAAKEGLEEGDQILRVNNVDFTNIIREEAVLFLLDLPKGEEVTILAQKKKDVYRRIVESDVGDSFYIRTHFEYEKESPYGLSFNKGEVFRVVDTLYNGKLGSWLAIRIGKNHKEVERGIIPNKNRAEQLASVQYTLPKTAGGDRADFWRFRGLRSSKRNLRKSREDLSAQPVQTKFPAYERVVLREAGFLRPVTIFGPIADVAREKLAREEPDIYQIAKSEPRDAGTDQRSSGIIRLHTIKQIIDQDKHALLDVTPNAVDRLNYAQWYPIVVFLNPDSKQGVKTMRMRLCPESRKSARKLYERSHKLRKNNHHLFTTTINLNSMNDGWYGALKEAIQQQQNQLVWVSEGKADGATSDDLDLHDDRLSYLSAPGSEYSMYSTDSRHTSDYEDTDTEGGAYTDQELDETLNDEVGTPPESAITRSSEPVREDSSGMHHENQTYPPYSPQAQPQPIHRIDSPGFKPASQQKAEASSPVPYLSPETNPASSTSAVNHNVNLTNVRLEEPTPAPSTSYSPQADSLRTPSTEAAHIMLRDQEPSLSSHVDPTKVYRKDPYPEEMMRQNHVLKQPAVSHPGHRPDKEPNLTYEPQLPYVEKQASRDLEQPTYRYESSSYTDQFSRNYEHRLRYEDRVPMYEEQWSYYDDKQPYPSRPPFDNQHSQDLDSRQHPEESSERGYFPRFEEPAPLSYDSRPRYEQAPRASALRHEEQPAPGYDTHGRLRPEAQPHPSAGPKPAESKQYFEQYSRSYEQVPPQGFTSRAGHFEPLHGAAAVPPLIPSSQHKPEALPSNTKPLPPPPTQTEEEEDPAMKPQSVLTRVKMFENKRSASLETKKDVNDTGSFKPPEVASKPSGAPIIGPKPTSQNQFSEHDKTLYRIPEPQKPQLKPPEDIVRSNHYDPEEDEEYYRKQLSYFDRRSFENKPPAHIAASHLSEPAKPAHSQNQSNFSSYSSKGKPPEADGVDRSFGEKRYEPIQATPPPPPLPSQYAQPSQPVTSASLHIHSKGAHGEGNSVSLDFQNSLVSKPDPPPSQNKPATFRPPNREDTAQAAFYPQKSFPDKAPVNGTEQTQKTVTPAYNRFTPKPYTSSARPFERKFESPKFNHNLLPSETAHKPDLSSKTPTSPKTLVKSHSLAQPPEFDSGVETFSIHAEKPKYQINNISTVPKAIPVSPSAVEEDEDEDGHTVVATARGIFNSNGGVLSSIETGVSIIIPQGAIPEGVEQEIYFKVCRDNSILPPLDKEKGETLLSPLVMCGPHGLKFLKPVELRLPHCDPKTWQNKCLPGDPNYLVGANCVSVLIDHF
UniProt Q6YHU6: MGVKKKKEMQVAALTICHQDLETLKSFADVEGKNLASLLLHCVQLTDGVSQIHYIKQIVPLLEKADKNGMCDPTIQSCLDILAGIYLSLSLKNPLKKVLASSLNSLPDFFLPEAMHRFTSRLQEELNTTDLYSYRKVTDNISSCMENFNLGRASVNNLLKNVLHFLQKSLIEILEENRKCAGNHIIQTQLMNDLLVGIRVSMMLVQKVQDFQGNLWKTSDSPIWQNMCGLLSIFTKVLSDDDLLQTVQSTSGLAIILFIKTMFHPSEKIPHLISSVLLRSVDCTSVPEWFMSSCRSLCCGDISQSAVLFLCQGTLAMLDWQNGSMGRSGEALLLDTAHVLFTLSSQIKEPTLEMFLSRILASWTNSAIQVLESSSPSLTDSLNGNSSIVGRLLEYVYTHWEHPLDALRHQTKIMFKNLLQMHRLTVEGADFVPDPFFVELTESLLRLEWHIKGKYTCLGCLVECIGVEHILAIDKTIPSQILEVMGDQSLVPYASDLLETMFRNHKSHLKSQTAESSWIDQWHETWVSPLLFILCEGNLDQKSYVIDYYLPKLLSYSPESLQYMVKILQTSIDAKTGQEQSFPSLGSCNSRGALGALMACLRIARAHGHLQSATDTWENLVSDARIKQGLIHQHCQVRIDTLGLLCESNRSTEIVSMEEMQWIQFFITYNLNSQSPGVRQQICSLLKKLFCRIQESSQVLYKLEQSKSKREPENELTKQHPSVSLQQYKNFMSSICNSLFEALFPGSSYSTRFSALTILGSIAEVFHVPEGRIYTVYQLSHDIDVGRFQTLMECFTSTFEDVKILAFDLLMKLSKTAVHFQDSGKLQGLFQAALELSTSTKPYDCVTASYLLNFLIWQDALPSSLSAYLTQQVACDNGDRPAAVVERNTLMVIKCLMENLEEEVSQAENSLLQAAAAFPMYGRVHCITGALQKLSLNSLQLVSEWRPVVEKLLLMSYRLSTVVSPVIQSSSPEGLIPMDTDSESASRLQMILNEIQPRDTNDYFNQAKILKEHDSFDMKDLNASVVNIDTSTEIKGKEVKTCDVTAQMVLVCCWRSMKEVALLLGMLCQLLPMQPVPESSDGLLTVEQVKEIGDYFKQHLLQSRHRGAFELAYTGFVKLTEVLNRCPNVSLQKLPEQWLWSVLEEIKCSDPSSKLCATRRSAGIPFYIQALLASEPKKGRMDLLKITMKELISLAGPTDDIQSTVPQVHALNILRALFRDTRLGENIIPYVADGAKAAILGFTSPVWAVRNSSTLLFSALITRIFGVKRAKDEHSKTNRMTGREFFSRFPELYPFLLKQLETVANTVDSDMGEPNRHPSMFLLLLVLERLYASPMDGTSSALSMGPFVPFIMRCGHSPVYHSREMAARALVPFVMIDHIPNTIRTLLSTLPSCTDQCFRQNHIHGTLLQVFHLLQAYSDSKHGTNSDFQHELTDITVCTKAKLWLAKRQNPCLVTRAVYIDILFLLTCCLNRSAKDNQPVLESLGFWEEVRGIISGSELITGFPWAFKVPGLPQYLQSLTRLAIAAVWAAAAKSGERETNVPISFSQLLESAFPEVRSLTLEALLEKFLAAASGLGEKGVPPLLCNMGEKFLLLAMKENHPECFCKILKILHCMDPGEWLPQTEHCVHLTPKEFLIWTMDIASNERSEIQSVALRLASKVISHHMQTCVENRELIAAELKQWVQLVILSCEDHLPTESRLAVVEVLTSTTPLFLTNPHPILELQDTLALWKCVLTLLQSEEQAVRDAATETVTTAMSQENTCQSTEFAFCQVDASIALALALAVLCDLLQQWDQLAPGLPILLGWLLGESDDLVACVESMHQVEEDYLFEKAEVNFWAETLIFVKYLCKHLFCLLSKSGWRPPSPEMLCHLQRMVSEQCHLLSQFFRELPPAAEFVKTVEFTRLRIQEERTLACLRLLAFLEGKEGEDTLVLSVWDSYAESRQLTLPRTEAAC
UniProt Q9Y5J7: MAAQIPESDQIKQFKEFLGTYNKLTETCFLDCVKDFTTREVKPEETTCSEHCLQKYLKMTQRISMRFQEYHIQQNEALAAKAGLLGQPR
UniProt Q9HD45: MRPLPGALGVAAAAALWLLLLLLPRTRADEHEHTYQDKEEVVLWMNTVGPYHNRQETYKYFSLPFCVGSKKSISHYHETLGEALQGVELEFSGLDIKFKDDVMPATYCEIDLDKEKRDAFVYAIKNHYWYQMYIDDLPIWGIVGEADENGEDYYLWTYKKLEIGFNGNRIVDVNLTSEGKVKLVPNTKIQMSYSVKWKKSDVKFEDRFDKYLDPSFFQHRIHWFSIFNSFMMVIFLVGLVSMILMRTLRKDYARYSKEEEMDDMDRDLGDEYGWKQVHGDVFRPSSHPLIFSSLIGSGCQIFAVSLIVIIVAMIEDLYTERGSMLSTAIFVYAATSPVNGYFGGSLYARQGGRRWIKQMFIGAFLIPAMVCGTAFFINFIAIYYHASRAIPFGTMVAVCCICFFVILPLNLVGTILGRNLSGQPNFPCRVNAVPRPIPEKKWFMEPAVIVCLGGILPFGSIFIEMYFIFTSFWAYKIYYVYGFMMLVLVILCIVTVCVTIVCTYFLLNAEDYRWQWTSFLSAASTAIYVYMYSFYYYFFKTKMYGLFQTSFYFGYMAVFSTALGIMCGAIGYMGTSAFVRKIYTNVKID
UniProt Q9P2C4: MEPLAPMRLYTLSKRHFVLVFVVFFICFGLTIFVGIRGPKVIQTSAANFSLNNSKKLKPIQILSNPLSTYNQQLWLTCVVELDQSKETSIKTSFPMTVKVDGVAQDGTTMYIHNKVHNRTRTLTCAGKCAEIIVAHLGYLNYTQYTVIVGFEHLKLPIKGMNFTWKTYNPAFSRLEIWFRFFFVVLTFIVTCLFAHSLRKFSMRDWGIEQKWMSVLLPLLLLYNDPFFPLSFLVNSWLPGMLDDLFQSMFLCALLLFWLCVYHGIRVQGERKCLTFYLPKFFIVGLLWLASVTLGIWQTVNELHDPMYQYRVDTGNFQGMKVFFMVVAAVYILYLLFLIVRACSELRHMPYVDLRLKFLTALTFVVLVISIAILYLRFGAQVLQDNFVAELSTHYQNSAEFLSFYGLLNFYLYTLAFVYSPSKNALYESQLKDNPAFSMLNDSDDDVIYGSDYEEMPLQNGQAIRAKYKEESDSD

[1] = compound: Cc1nc(Nc2n[nH]c3c2CN(C(=O)N[C@H](CN(C)C)c2ccccc2)C3(C)C)c2sccc2n1
Procedure, shortened: as §1

dasatinib = compound: Cc1nc(Nc2ncc(C(=O)Nc3c(C)cccc3Cl)s2)cc(N2CCN(CCO)CC2)n1 [dasatinib]
Procedure, shortened: as §1

[2] = compound: Cc1ncc(-c2ccnc(Nc3ccc(S(C)(=O)=O)cc3)n2)n1C(C)C
Procedure, shortened: as §1

[3] = compound: Cn1cc(-c2ccc3c(c2)CCN3C(=O)Cc2cccc(C(F)(F)F)c2)c2c(N)ncnc21
Procedure, shortened: as §1

quisinostat = compound: Cn1cc(CNCC2CCN(c3ncc(C(=O)NO)cn3)CC2)c2ccccc21 [quisinostat]
Procedure, shortened: as §1

tipifarnib = compound: Cn1cncc1[C@@](N)(c1ccc(Cl)cc1)c1ccc2c(c1)c(-c1cccc(Cl)c1)cc(=O)n2C [tipifarnib]
Procedure, shortened: as §1

[4] = compound: NC(=O)Nc1cc(-c2cccc(F)c2)sc1C(=O)N[C@H]1CCCNC1
Procedure, shortened: as §1

[5] = compound: NC(=O)c1cnc(N[C@@H]2CCCC[C@@H]2N)nc1Nc1cccc(-n2nccn2)c1
Procedure, shortened: as §1

[6] = compound: NC1(c2ccc(-c3nc4ccn5c(=O)[nH]nc5c4cc3-c3ccccc3)cc2)CCC1
Procedure, shortened: as §1

Measured: log2 fold change

TM9SF2 (UniProt Q99805)
inactive: nilotinib 0.002 | [1] 0.004 | dasatinib -0.035 | [2] 0.008 | [3] -0.025 | quisinostat 0.03 | tipifarnib -0.012 | [4] -0.022 | [5] 0.002 | [6] -0.017

TMEM147 (UniProt Q9BVK8)
inactive: nilotinib -0.005 | [1] 0.031 | [2] 0.04 | quisinostat -0.245 | tipifarnib -0.162 | [4] 0.005 | [5] 0.031 | [6] 0.008

TMED1 (UniProt Q13445)
inactive: nilotinib 0.056 | [1] 0.083 | dasatinib -0.034 | [2] -0.03 | [3] -0.107 | quisinostat 0.245 | tipifarnib -0.17 | [4] 0.002 | [5] 0.031 | [6] 0.099

TIMM21 (UniProt Q9BVV7)
inactive: nilotinib 0.037 | [1] -0.074 | dasatinib -0.029 | [2] -0.054 | [3] -0.026 | quisinostat -0.109 | tipifarnib 0.065 | [4] 0.026 | [5] 0.011 | [6] 0.023

2 successive records out of the list so far, quoted:
TM9SF2 (UniProt Q99805)
inactive: nilotinib 0.002 | [1] 0.004 | dasatinib -0.035 | [2] 0.008 | [3] -0.025 | quisinostat 0.03 | tipifarnib -0.012 | [4] -0.022 | [5] 0.002 | [6] -0.017

TMEM147 (UniProt Q9BVK8)
inactive: nilotinib -0.005 | [1] 0.031 | [2] 0.04 | quisinostat -0.245 | tipifarnib -0.162 | [4] 0.005 | [5] 0.031 | [6] 0.008

Further results:

TMCO6 isoform 2 (UniProt Q96DC7)
inactive: nilotinib 0.061 | [1] 0.044 | dasatinib -0.064 | [2] -0.11 | [3] 0.003 | quisinostat -0.046 | tipifarnib -0.003 | [4] 0.04 | [5] 0.05 | [6] -0.045

TMEM184C (UniProt Q9NVA4)
inactive: nilotinib -0.014 | [1] 0.095 | dasatinib 0.015 | [2] -0.001 | [3] 0.074 | quisinostat 0.004 | tipifarnib 0.006 | [4] -0.009 | [5] -0.045 | [6] -0.05

TMEM123 (UniProt Q8N131)
inactive: nilotinib 0.033 | [1] -0.099 | dasatinib -0.02 | [2] -0.084 | [3] 0.038 | tipifarnib 0.038 | [5] -0.125 | [6] 0.019

TIMM44 (UniProt O43615)
inactive: nilotinib 0.082 | [1] -0.011 | dasatinib -0.087 | [2] 0.023 | [3] -0.028 | quisinostat 0.003 | tipifarnib -0.108 | [4] -0.058 | [5] 0 | [6] -0.031

TMEM102 (UniProt Q8N9M5)
inactive: nilotinib 0.105 | [1] 0.174 | [2] -0.054 | quisinostat -0.336 | tipifarnib 0.139 | [4] 0.073

TMEM167B (UniProt Q9NRX6)
inactive: nilotinib 0.006 | [1] 0.031 | [2] 0.014 | quisinostat -0.016 | tipifarnib -0.013 | [4] 0.027 | [5] 0.005 | [6] -0.019

TMEM167A (UniProt Q8TBQ9)
inactive: nilotinib 0.031 | [1] -0.001 | dasatinib 0.017 | [2] 0.047 | [3] -0.061 | quisinostat -0.04 | tipifarnib -0.057 | [4] -0.028 | [5] -0.036 | [6] 0.034

THAP11 (UniProt Q96EK4)
inactive: nilotinib -0.011 | [1] -0.284 | dasatinib -0.034 | [2] -0.075 | [3] 0.106 | tipifarnib 0.044 | [5] -0.003 | [6] -0.022

TMEM159 isoform 2 (UniProt Q96B96)
inactive: nilotinib 0.12 | [1] 0.197 | dasatinib -0.027 | [2] 0.018 | [3] -0.003 | quisinostat 0.014 | tipifarnib 0.095 | [4] -0.057 | [5] -0.004 | [6] 0.028

TGS1 (UniProt Q96RS0)
inactive: nilotinib -0.008 | [1] 0.009 | dasatinib 0.007 | [2] -0.036 | [3] 0.002 | quisinostat -0.024 | tipifarnib 0 | [4] 0.023 | [5] 0.013 | [6] 0.034

TMED9 (UniProt Q9BVK6)
inactive: nilotinib 0.032 | [1] -0.034 | dasatinib -0.023 | [2] -0.001 | [3] 0.014 | quisinostat -0.041 | tipifarnib -0.012 | [4] 0.007 | [5] 0.032 | [6] 0.04

TMED10 (UniProt P49755)
inactive: nilotinib 0.016 | [1] -0.027 | dasatinib 0.039 | [2] -0.007 | [3] 0.025 | quisinostat 0.029 | tipifarnib -0.021 | [4] 0.006 | [5] -0.017 | [6] 0.011

TLE4 isoform 3 (UniProt Q04727)
inactive: nilotinib -0.004 | [1] 0.037 | dasatinib -0.042 | [2] -0.029 | [3] 0.03 | quisinostat 0.02 | tipifarnib 0.006 | [4] -0.045 | [5] -0.039 | [6] -0.013

TJP1 isoform 2 (UniProt Q07157)
inactive: nilotinib -0.003 | [1] 0.004 | dasatinib 0.036 | [2] 0.006 | [3] -0.013 | quisinostat -0.011 | tipifarnib -0.005 | [4] -0.019 | [5] 0.022 | [6] -0.041

THADA (UniProt Q6YHU6)
inactive: nilotinib 0.009 | [1] 0.012 | dasatinib -0.048 | [2] 0.008 | [3] 0.027 | quisinostat -0.115 | tipifarnib -0.011 | [4] 0.053 | [5] 0.007 | [6] 0.002

THAP12 (UniProt O43422)
inactive: nilotinib 0.003 | [1] -0.018 | dasatinib -0.025 | [2] -0.055 | [3] -0.005 | quisinostat -0.099 | tipifarnib -0.009 | [4] 0.042 | [5] 0.033 | [6] -0.026

TMEM186 (UniProt Q96B77)
inactive: nilotinib 0.032 | [1] 0.026 | dasatinib 0.057 | [2] -0.058 | [3] -0.086 | quisinostat 0.029 | tipifarnib 0.057 | [4] 0.017 | [5] -0.056 | [6] -0.025

TIMM9 (UniProt Q9Y5J7)
inactive: nilotinib 0.066 | [1] 0.046 | dasatinib 0.021 | [2] 0.146 | [3] -0.022 | quisinostat 0.029 | tipifarnib 0.052 | [4] -0.088 | [5] -0.029 | [6] -0.025

TGM2 (UniProt P21980)
inactive: nilotinib -0.009 | [1] -0.021 | dasatinib 0 | [2] 0.006 | [3] 0.007 | quisinostat -0.042 | tipifarnib -0.012 | [4] 0.001 | [5] 0.019 | [6] -0.016

TM9SF3 (UniProt Q9HD45)
inactive: nilotinib -0.038 | [1] -0.089 | dasatinib 0.014 | [2] -0.108 | [3] 0 | quisinostat -0.004 | tipifarnib -0.032 | [4] 0.007 | [5] -0.035 | [6] -0.032

TMC1 (UniProt Q8TDI8)
inactive: nilotinib -0.073 | [1] -0.049 | [2] -0.28 | tipifarnib 0.015 | [4] -0.058 | [5] -0.006 | [6] 0
active: quisinostat -0.552

TGFBR3 (UniProt Q03167)
inactive: nilotinib -0.027 | [1] -0.011 | dasatinib 0.015 | [2] -0.01 | [3] 0.006 | quisinostat -0.006 | tipifarnib 0.024 | [4] -0.008 | [5] -0.014 | [6] 0.005

TMEM161B (UniProt Q8NDZ6)
active: nilotinib 0.419
inactive: [1] -0.014 | [2] 0.053 | quisinostat -0.07 | tipifarnib -0.117 | [4] 0.046 | [5] -0.005 | [6] -0.064

TJP1 (UniProt G3V1L9)
inactive: nilotinib 0.093 | [1] 0.051 | dasatinib 0.083 | [2] 0.11 | [3] -0.139 | quisinostat 0.137 | tipifarnib -0.078 | [4] 0.022 | [6] -0.08

TMED3 (UniProt Q9Y3Q3)
inactive: quisinostat 0.031 | [4] 0.021 | [5] -0.12 | [6] -0.044

TMEM181 (UniProt Q9P2C4)
inactive: dasatinib 0.075 | [3] 0.08 | quisinostat -0.025 | [4] -0.008 | [5] 0.02 | [6] -0.048

TMEM138 (UniProt Q9NPI0)
inactive: dasatinib 0.068 | [3] 0.023 | [6] 0

THAP7 (UniProt Q9BT49)
inactive: nilotinib 0.035 | [1] 0.037 | [2] 0.052 | tipifarnib -0.005

— the supplement of paper PMC10849652
